Data reported in doi:10.1101/2021.04.21.440798 (bioRxiv, 2021).
Results are given in words; binding and its absence hold for the method and conditions named. In cells and extracts the contact can be indirect. Some binding calls cover weakened binding; strength is not graded here.

Amino acid sequences for entries named in this document (tags omitted).
UniProt Q86VP1: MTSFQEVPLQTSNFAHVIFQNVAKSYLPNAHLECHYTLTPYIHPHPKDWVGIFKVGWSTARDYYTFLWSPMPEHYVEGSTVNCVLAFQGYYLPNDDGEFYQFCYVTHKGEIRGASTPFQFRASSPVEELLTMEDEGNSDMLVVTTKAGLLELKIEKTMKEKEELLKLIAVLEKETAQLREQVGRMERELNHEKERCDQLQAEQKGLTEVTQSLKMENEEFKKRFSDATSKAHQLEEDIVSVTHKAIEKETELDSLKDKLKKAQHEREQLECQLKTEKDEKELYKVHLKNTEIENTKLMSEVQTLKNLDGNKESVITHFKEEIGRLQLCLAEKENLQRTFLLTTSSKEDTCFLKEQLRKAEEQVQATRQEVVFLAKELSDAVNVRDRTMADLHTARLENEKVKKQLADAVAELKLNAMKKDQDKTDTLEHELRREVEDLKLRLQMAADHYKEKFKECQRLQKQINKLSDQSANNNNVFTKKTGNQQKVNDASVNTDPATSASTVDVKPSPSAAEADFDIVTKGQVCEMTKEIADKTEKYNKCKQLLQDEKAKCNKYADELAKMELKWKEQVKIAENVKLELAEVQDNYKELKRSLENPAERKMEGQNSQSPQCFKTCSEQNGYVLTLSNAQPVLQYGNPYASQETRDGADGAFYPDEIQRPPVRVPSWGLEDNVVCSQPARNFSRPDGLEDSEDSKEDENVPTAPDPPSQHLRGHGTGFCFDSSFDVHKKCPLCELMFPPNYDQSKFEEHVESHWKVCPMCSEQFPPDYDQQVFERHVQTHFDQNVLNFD

Legend:
[1] = target: TAX1-Binding Protein-1 (TAX1BP1/T6BP), endogenous (human (endogenous in HeLa-CIITA, DG75 and KG-1)) (UniProt Q86VP1); test: proximity ligation
[2] = target: TAX1-Binding Protein-1 (TAX1BP1/T6BP), endogenous (human (endogenous in HeLa-CIITA, DG75 and KG-1)) (UniProt Q86VP1); test: co-IP
[3] = target: TAX1-Binding Protein-1 (TAX1BP1/T6BP), endogenous (human (endogenous in HeLa-CIITA, DG75 and KG-1)) (UniProt Q86VP1); test: co-IP; remark: listed apart in the source
[4] = target: TAX1-Binding Protein-1 (TAX1BP1/T6BP), endogenous (human (endogenous in HeLa-CIITA, DG75 and KG-1)) (UniProt Q86VP1); test: co-IP; remark: listed apart in the source

Measured: binding

B1: Calnexin (CANX), endogenous (natural protein)
chain: HDGHDDDVIDIEDDLDDVIEEVEDSKPDTTAPPSSPKVTYKAPVPTGEVYFADSFDRGTLSGWILSKAKKDDTDDEIAKYDGKWEVEEMKESKLPGDKGLVLMSRAKHHAISAKLNKPFLFDTKPLIVQYEVNFQNGIECGGAYVKLLSKTPELNLDQFHDKTPYTIMFGPDKCGEDYKLHFIFRHKNPKTGIYEEKHAKRPDADLKTYFTDKKTHLYTLILNPDNSFEILVDQSVVNSGNLLNDMTPPVNPSREIEDPEDRKPEDWDERPKIPDPEAVKPDDWDEDAPAKIPDEEATKPEGWLDDEPEYVPDPDAEKPEDWDEDMDGEWEAPQIANPRCESAPGCGVWQRPVIDNPNYKGKWKPPMIDNPSYQGIWKPRKIPNPDFFEDLEPFRMTPFSAIGLELWSMTSDIFFDNFIICADRRIVDDWANDGWGLKKAADGAAEPGVVGQMIEAAEERPWLWVVYILTVALPVFLVILFCCSGKKQTSGMEYKKTDAPQPDVKEEEEEKEEEKDKGDEEEEGEEKLEEKQKSDAEEDGGTVSQEEEDRKPKAEEDEILNRSPRNRKPRRE
binds: all assays above
